PubChem BioAssay AID1159578, Peter MacCallum Cancer Centre, 2015
Here is an unselected part of about 18,000 reagents. About 1,030 of all reagents (5.7%) were called active. 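Inactive calls also include pools with fewer than 3300 nuclei, whose migration was not assessed.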 Raw values are not corrected between plates. The numbers tell different reagents against one gene apart. Not all columns of the deposit are shown.

- Aim: 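Genome-wide hunt for genes controlling movement of lymphatic endothelial cells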 (primary screen)
- System: human lymphatic endothelial cells
- Knock-down reagent: siRNA pool against human genes, 40 nM
- Duration: 48 h after transfection
- Measured: 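Cells stained with dye and imaged after a scratch; covered wound area and nuclei counted, duplicates averaged, migration set against mock wells and turned into a robust z-score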
- Direction: migration robust z-score: higher = faster migration into the scratch; nuclei per well: higher = more cells in the well
- Call rule: 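Pools averaging fewer than 3300 nuclei are never called; remaining pools count as changed when migration robust z lies outside -2 to 2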
- Calls: active = migration changed; inactive = no migration change, or too few cells

With knock-down of MRC1 (GeneID 4360) #1, the screen gave migration robust z-score -0.55; migration class with cell-count check migration z between -2 and 2; enough cells; nuclei per well, duplicate mean 6240; inactive.
For MRC1 (GeneID 4360) #2 the deposit lists migration robust z-score 1.08; migration class with cell-count check migration z between -2 and 2; enough cells; nuclei per well, duplicate mean 5927; inactive.
With knock-down of ALG1L1P (GeneID 200810), the record shows migration robust z-score -0.68; migration class with cell-count check migration z between -2 and 2; enough cells; nuclei per well, duplicate mean 5761; inactive.
PRH2 (GeneID 5555) scored migration robust z-score -1.27; migration class with cell-count check migration z between -2 and 2; enough cells; nuclei per well, duplicate mean 5806; inactive.
Depletion of ITGA5 (GeneID 3678) gave: migration robust z-score -0.91; migration class with cell-count check migration z between -2 and 2; enough cells; nuclei per well, duplicate mean 5714; inactive.
Against CLK1 (GeneID 1195), the values are migration robust z-score 1.97; migration class with cell-count check migration z between -2 and 2; enough cells; nuclei per well, duplicate mean 5118; inactive.
CENPS (GeneID 378708) gave migration robust z-score -0.9; migration class with cell-count check migration z between -2 and 2; enough cells; nuclei per well, duplicate mean 6164; inactive.
CORO7 (GeneID 79585) showed migration robust z-score -0.49; migration class with cell-count check migration z between -2 and 2; enough cells; nuclei per well, duplicate mean 5598; inactive.
After knock-down of INPP4B (GeneID 8821), the record shows migration robust z-score -1.04; migration class with cell-count check migration z between -2 and 2; enough cells; nuclei per well, duplicate mean 6302; inactive.
After knock-down of SLC26A11 (GeneID 284129), the record shows migration robust z-score -2.34; migration class with cell-count check migration z below -2; enough cells; nuclei per well, duplicate mean 5688; active.

2 consecutive reagents already listed, for reference:
MRC1 (GeneID 4360) #2 — migration robust z-score: 1.08; migration class with cell-count check: migration z between -2 and 2; enough cells; nuclei per well, duplicate mean: 5927; Call: inactive
ALG1L1P (GeneID 200810) — migration robust z-score: -0.68; migration class with cell-count check: migration z between -2 and 2; enough cells; nuclei per well, duplicate mean: 5761; Call: inactive

The listing continues:
Silencing of MAP1LC3C (GeneID 440738) came out at: migration robust z-score -0.03; migration class with cell-count check migration z between -2 and 2; enough cells; nuclei per well, duplicate mean 6882; inactive.
Against RHCE (GeneID 6006) the deposit lists migration robust z-score 0.73; migration class with cell-count check migration z between -2 and 2; enough cells; nuclei per well, duplicate mean 6123; inactive.
With knock-down of ZBTB45 (GeneID 84878) the results were migration robust z-score 0.94; migration class with cell-count check migration z between -2 and 2; enough cells; nuclei per well, duplicate mean 4444; inactive.
C11orf52 (GeneID 91894) gave migration robust z-score -0.91; migration class with cell-count check migration z between -2 and 2; enough cells; nuclei per well, duplicate mean 3444; inactive.
Against HEATR5B (GeneID 54497) the deposit lists migration robust z-score -1.08; migration class with cell-count check migration z between -2 and 2; enough cells; nuclei per well, duplicate mean 6712; inactive.
With knock-down of TIPARP (GeneID 25976), the record shows migration robust z-score -0.86; migration class with cell-count check migration z between -2 and 2; enough cells; nuclei per well, duplicate mean 4918; inactive.
For MIR22HG (GeneID 84981), the entry reads migration robust z-score -0.46; migration class with cell-count check migration z between -2 and 2; enough cells; nuclei per well, duplicate mean 6406; inactive.
PNLIP (GeneID 5406) gave migration robust z-score 0.6; migration class with cell-count check migration z between -2 and 2; enough cells; nuclei per well, duplicate mean 6105; inactive.
KRTAP5-9 (GeneID 3846) showed migration robust z-score -1.94; migration class with cell-count check migration z between -2 and 2; enough cells; nuclei per well, duplicate mean 4864; inactive.
SPANXN1 (GeneID 494118) scored migration robust z-score -1.98; migration class with cell-count check migration z between -2 and 2; enough cells; nuclei per well, duplicate mean 6080; inactive.
PPARG (GeneID 5468) showed migration robust z-score 0.99; migration class with cell-count check migration z between -2 and 2; enough cells; nuclei per well, duplicate mean 3378; inactive.
